About 7,700 (2.3%) of roughly 330,000 compounds were called active. The shares of active, inactive and inconclusive entries below differ from those in the screen. Calls follow the shape of the dose curve; as a rule, active = well fitted inhibition curve with a large enough effect; inconclusive = small, poorly fitted or top-dose-only effect, or effect the other way; inactive = flat fitted curve, though single readings scatter. Potencies of inconclusive entries are doubtful fits and often do not repeat.
experiment: qHTS screen for small molecules that inhibit ELG1-dependent DNA repair in human embryonic kidney (HEK293T) cells expressing luciferase-tagged ELG1; details: HEK293T ELG1-luciferase reporter, luminescence, 16 h, DNA damage induced by 5-fluorouridine; series mostly up to 46.1 µM; also: nearly all actives have a fitted effect of over 55% in size
In short: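 In this reporter screen, reduction of luminescence relative to DMSO vehicle indicated activity. Compounds and 5-fluorouridine were added together to 2,000 cells per well, incubated for 16 hr at 37 °C, then developed with ONE-Glo.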
Potency is read from the fitted curve at half-maximal effect.

Compound	Potency
O=C(CSc1nc2ncc(Cl)cc2[nH]1)c1c[nH]c2ccccc12	inactive
O=C(/C=C/c1ccccc1)NCCSCc1ccccc1	inconclusive: 23.1 µM [activator, single point]
Cc1ccc(C(=O)N2CCCC(c3ccc(Cl)cc3)=N2)cc1	inactive
COc1ccc(C(CNC(=O)c2cc(S(=O)(=O)NCc3ccco3)ccc2C)N(C)C)cc1 (configuration not stated)	inconclusive: 29.1 µM [activator, partial curve, poor fit]
Cc1nc2ccccc2c(=O)n1NC(=O)c1c(O)c2c(n(CC(C)C)c1=O)CCCC2	inactive
CN(C)C(=O)/C(C#N)=C\c1cc(Br)c(Sc2ccc(Cl)cc2)o1	inconclusive: 29.1 µM [inhibitor, single point]
Cc1ccc(S(=O)(=O)c2nc(S(=O)(=O)c3ccccc3)sc2N2CCN(CCO)CC2)cc1	inactive
Cc1ccc(CS(=O)Cc2ccc(C(=O)N3CCN(c4ccccc4)CC3)o2)cc1 (configuration not stated)	inconclusive: 29.1 µM [inhibitor, single point]
Cc1cc(CN(C)C(=O)c2ccc(OC3CCN(CCc4ccccc4)CC3)cc2)on1	inactive
CCn1c(C)nc2cc(C(=O)NNC(=O)CN(C)S(=O)(=O)c3ccc(NC(C)=O)cc3)ccc21	inconclusive: 29.1 µM [activator, single point]
Cc1nnc(SCC(=O)N(CC(C)C)C2CCS(=O)(=O)C2)s1 (configuration not stated)	inactive
COc1cc(-c2cc(C(=O)OCC(=O)Nc3ccc4c(c3)OCO4)c3ccccc3n2)cc(OC)c1OC	inconclusive: 23.1 µM [inhibitor, single point]
CCCCCCCNC(=O)C1(CC2CC(c3cccc(Br)c3)=NO2)CCNCC1 (configuration not stated)	inconclusive: 29.1 µM [activator, single point]
COc1cc(C(=O)N2CCCN(c3nc4cc(C)ccc4cc3C#N)CC2)cc(OC)c1OC	inconclusive: 29.1 µM [inhibitor, single point]
O=C1[C@H](Oc2ccccc2)[C@@H](c2ccncc2)N1c1ccncc1	inactive
O=S(=O)(c1cccc(S(=O)(=O)N2CCCC2)c1)N1CCCCC1	inactive
CCOC(=O)C1CCCN(C(=O)Cn2ncc3c([nH]c4ccccc43)c2=O)C1 (configuration not stated)	inactive
CCOc1ccc(-c2nc(CSCC(=O)NC3CCCc4ccccc43)c(C)o2)cc1 (configuration not stated)	inconclusive: 29.1 µM [inhibitor, single point]
COc1ccc(C(=O)N/C(=C\c2ccco2)C(=O)NC2CCS(=O)(=O)C2)cc1 (configuration not stated)	inactive
O=c1nc(/C=C/c2cc([N+](=O)[O-])ccc2Cl)cc(C(F)(F)F)[nH]1	inconclusive: 14.6 µM [inhibitor, partial curve]
CCc1ccc(OCC(=O)NC(=S)Nc2cccc(CO)c2)c(Br)c1	inconclusive: 1.3 µM [activator, full curve]
Cc1ccc(SCC2(O)CCN(S(=O)(=O)c3ccc(Cl)cc3)CC2)cc1	inconclusive: 16.4 µM [inhibitor, partial curve, poor fit]
Fc1ccc(CN2CCN(C(=S)NCCc3ccccc3)CC2)c(Cl)c1	inconclusive: 29.1 µM [inhibitor, single point]
c1csc(C2CCCN2c2nc3nonc3nc2NC2CC2)n1 (configuration not stated)	inactive

Random excerpt: three compounds from above
Compound	Potency
CCOc1ccc(-c2nc(CSCC(=O)NC3CCCc4ccccc43)c(C)o2)cc1 (configuration not stated)	inconclusive: 29.1 µM [inhibitor, single point]
Cc1cc(CN(C)C(=O)c2ccc(OC3CCN(CCc4ccccc4)CC3)cc2)on1	inactive
CCCCCCCNC(=O)C1(CC2CC(c3cccc(Br)c3)=NO2)CCNCC1 (configuration not stated)	inconclusive: 29.1 µM [activator, single point]

(listing goes on)

Compound	Potency
O=C(/C=C/c1cccc(F)c1)N1CCN(c2ncccn2)CC1	inconclusive: 8.2 µM [activator, partial curve, poor fit]
COc1ccc(C(=O)Nc2cccc(NC(=O)c3cccs3)c2)cc1	inactive
O=C1c2ccccc2C(=O)N1CCc1nc2ccccc2c(=O)n1Cc1ccco1	active: 20.6 µM
CCCCCCN(CCCCCC)C(=O)Cc1c(-c2ccc(F)cc2)[nH]c2ccccc12	inactive
Cc1occc1C(=O)OCC(=O)Nc1ccc(F)cc1	inconclusive: 16.4 µM [activator, partial curve]
Cc1ccccc1OCc1ccc(C(=O)N2CC(C)OC(C)C2)o1 (configuration not stated)	inactive
Cc1ccc(C(=O)Nc2ncccc2O)o1	inconclusive: 20.6 µM [activator, partial curve]
O=C(COC(=O)c1cc([N+](=O)[O-])ccc1N1CCOCC1)Nc1cc(F)ccc1F	active: 23.1 µM
O=C(O)c1ccc2ncc(NC(=O)c3ccc(F)cc3)c(=O)n2c1	inconclusive: 29.1 µM [inhibitor, single point]
CCCCn1c(=O)[nH]c2nc3cc(N)ccc3nc2c1=O	inconclusive: 13 µM [activator, partial curve]
Cc1cc(SCC(=O)Nc2cccc(S(=O)(=O)NC3=NCCCCC3)c2)c(C)cc1Br	inconclusive: 29.1 µM [inhibitor, single point]
O=C(Nc1ccsc1C(=O)O)c1ccc(Cl)cc1	inconclusive: 14.6 µM [activator, partial curve]
Cc1nc(NC(=O)CCc2ccccc2)ccc1Br	inconclusive: 13 µM [activator, partial curve]
CCOC(=O)C1C(C)=CC(=O)CC1c1ccco1 (configuration not stated)	inactive
CN(Cc1ccccc1F)C(=O)c1sccc1-c1ccccc1	inactive
NCCCn1c(C(=O)c2ccc(Cl)cc2)c2ccc(C(F)(F)F)cc2[n+]1[O-]	inactive
CC(C)C(=O)N1CCN(c2ccc(NC(=O)c3ccc([N+](=O)[O-])o3)cc2Cl)CC1	inactive
CCOCCCNC(=O)c1ccc(OC)cc1	inconclusive: 4.11 µM [activator, partial curve]
COc1ccc(N2C(=O)C3C(C2=O)C3(c2ccccc2)c2ccccc2)cc1 (configuration not stated)	inactive
N#C/C(=C(/O)C(Cl)c1ccccc1)c1nc2ccccc2s1 (configuration not stated)	inconclusive: 14.6 µM [activator, partial curve, poor fit]
O=C(COc1ccc(S(=O)(=O)NC2CCCCC2)cc1)N1CCN(c2cccc(Cl)c2)CC1	inconclusive: 4.11 µM [inhibitor, full curve]
Cc1cc(C(=O)N/N=C/c2cccs2)n[nH]1	inconclusive: 18.3 µM [activator, partial curve]
CN(C(=O)CSc1nncc2ccccc12)c1ccccc1	inactive

— PubChem BioAssay AID504467 (National Center for Advancing Translational Sciences (NCATS), 2011)
